Consider 2 molecules from patent publication US10449223B2, “Use of dehydroeburicoic acid from Antrodia camphorata in the treatment or prevention of diabetes and hyperlipidemia” (priority 2016, dated 2019).

The data set concerns STZ-induced diabetic mice. The data set is described as follows: Tissue weight, body weight and food intake in STZ-induced diabetic mice. As to conditions: 28 days. Type of data set: in vivo, C57BL/6J mice.

Molecules are shown by their SMILES.

For the molecule `C=C(CC[C@@H](C(=O)O)[C@H]1CC[C@@]2(C)C3=CC[C@H]4C(C)(C)[C@@H](O)CC[C@]4(C)C3=CC[C@]12C)C(C)C` [TT, dehydroeburicoic acid], where the note is “TT 10 mg/kg/day oral”, the “Tissue weight: Skeletal muscle” value amounted to 1.162 ± 0.097 wt %, the “Tissue weight: liver” value was 3.952 ± 0.138 wt %, the “Tissue weight: spleen” value stood at 0.213 ± 0.019 wt % and the Weight gain worked out at 2.73 ± 0.38 g. Also, for the setting “TT 20 mg/kg/day oral”, the “Tissue weight: Skeletal muscle” value was 1.112 ± 0.096 wt %, the “Tissue weight: liver” value is recorded as 3.966 ± 0.171 wt %, the “Tissue weight: spleen” value is listed as 0.193 ± 0.021 wt % and the Weight gain is reported as 2.36 ± 0.27 g. For the setting “TT 40 mg/kg/day oral”, the “Tissue weight: Skeletal muscle” value amounted to 1.128 ± 0.110 wt % and the “Tissue weight: spleen” value is 0.215 ± 0.017 wt %.

As to `CN(C)C(=N)N=C(N)N` [Metf, metformin, reference compound], where the note is “Metf 300 mg/kg/day oral”, the “Tissue weight: Skeletal muscle” value is reported as 1.208 ± 0.149 wt %, the “Tissue weight: liver” value was 4.168 ± 0.100 wt %, the “Tissue weight: spleen” value stood at 0.230 ± 0.007 wt % and the Weight gain worked out at 2.32 ± 0.25 g.
